{"source": "PubChem BioAssay AID1259254 (NCATS, 2017)", "screen": "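Genome-wide screen for genes that prevent DNA re-replication in cancer cells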 (primary screen)", "cell system": "human HCT116 colorectal cancer cells", "reagent": "single siRNA against human genes", "timing": "3 days", "read-out": "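Nuclei stained with Hoechst and imaged; cell-cycle phase assigned by DNA content; G2 share scaled per plate, non-targeting siRNA 0%, GMNN siRNA 100%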", "scale": "G2 robust z-score: higher = more G2 cells, more excess DNA replication", "active means": "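Active siRNAs have a G2 robust z of 5 or more median absolute deviations over the median, which in these data means about 38% or higher of GMNN control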", "note": "Here is an unselected part of about 59,000 reagents tested. About 1,550 of all reagents (2.6%) were called active. 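G2 share is only a proxy for re-replication; each gene was hit by three separate siRNAs, and active genes were retested.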 Unmarked entries are inactive. Not all columns of the deposit are shown. No sequences are given here. The record does not give: the amount of reagent."}
{"gene": "PLEKHG6 (pleckstrin homology and RhoGEF domain containing G6)", "PubChem SID": "SID160743208", "G2 robust z-score": 0.172}
{"gene": "PLEKHG6 (pleckstrin homology and RhoGEF domain containing G6)", "PubChem SID": "SID160743209", "G2 robust z-score": 2.96}
{"gene": "PLEKHG6 (pleckstrin homology and RhoGEF domain containing G6)", "PubChem SID": "SID160743210", "G2 robust z-score": -0.369}
{"gene": "PTPRT (protein tyrosine phosphatase receptor type T)", "PubChem SID": "SID160729986", "G2 robust z-score": 3.3}
{"gene": "PTPRT (protein tyrosine phosphatase receptor type T)", "PubChem SID": "SID160729987", "G2 robust z-score": 0.82}
{"gene": "PTPRT (protein tyrosine phosphatase receptor type T)", "PubChem SID": "SID160729989", "G2 robust z-score": 0.434}
{"gene": "CKAP4 (cytoskeleton associated protein 4)", "PubChem SID": "SID160729649", "G2 robust z-score": 4.45}
{"gene": "CKAP4 (cytoskeleton associated protein 4)", "PubChem SID": "SID160729650", "G2 robust z-score": -0.188}
{"gene": "CKAP4 (cytoskeleton associated protein 4)", "PubChem SID": "SID160732307", "G2 robust z-score": -0.718}
{"gene": "CKAP4 (cytoskeleton associated protein 4)", "PubChem SID": "SID160772027", "G2 robust z-score": -0.513}
{"gene": "CKAP4 (cytoskeleton associated protein 4)", "PubChem SID": "SID160772029", "G2 robust z-score": -0.216}
{"gene": "CKAP4 (cytoskeleton associated protein 4)", "PubChem SID": "SID160772030", "G2 robust z-score": 0.691}
{"gene": "ABI2 (abl interactor 2)", "PubChem SID": "SID160726157", "G2 robust z-score": "5.55 (active)"}
{"gene": "ABI2 (abl interactor 2)", "PubChem SID": "SID160726167", "G2 robust z-score": -0.813}
{"gene": "ABI2 (abl interactor 2)", "PubChem SID": "SID160726173", "G2 robust z-score": 0.962}
{"gene": "TBC1D20 (TBC1 domain family member 20)", "PubChem SID": "SID160756785", "G2 robust z-score": -0.968}
{"gene": "TBC1D20 (TBC1 domain family member 20)", "PubChem SID": "SID160756786", "G2 robust z-score": -0.0646}
{"gene": "TBC1D20 (TBC1 domain family member 20)", "PubChem SID": "SID160756787", "G2 robust z-score": -0.446}
{"gene": "SSH3 (slingshot protein phosphatase 3)", "PubChem SID": "SID160742608", "G2 robust z-score": 0.635}
{"gene": "SSH3 (slingshot protein phosphatase 3)", "PubChem SID": "SID160742609", "G2 robust z-score": 1.62}
{"gene": "SSH3 (slingshot protein phosphatase 3)", "PubChem SID": "SID160742610", "G2 robust z-score": 2.08}
{"gene": "SIK2 (salt inducible kinase 2)", "PubChem SID": "SID160735792", "G2 robust z-score": 0.0569}
{"gene": "SIK2 (salt inducible kinase 2)", "PubChem SID": "SID160735793", "G2 robust z-score": 0.9}
{"gene": "SIK2 (salt inducible kinase 2)", "PubChem SID": "SID160735794", "G2 robust z-score": -0.358}
{"gene": "MIR9-3HG (MIR9-3 host gene)", "PubChem SID": "SID160732809", "G2 robust z-score": 0.726}
{"gene": "MIR9-3HG (MIR9-3 host gene)", "PubChem SID": "SID160762213", "G2 robust z-score": -0.248}
{"gene": "MIR9-3HG (MIR9-3 host gene)", "PubChem SID": "SID160762214", "G2 robust z-score": -0.538}
{"gene": "PLA2G4D (phospholipase A2 group IVD)", "PubChem SID": "SID160730999", "G2 robust z-score": 0.493}
{"gene": "PLA2G4D (phospholipase A2 group IVD)", "PubChem SID": "SID160763033", "G2 robust z-score": 0.567}
{"gene": "PLA2G4D (phospholipase A2 group IVD)", "PubChem SID": "SID160763034", "G2 robust z-score": 2.38}
